# Results deposited as PubChem BioAssay AID743458 (Peter MacCallum Cancer Centre, 2014).
# Assay: 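Identify genes whose loss lifts vorinostat resistance in colon cancer cells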 (follow-up of hits)
# System: human HCT116-VR colon cancer cells made resistant to vorinostat
# Reagents: single siRNA or pool against human genes, 25 nM per single siRNA
# Duration: about 72 h after transfection, including 24 h of drug
# Conditions: vorinostat, 2.5 µM final, for 24 h
# Measured: 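Live-cell fluorescent viability and luminescent caspase 3/7 activity after vorinostat treatment, background subtracted, mean of duplicate plates, as fold change over mock-transfected wells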
# Direction: viability relative to mock: higher = more living cells than mock; caspase activity relative to mock: higher = more apoptosis than mock
# Hit rule: 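Active means a reduced-viability or caspase-activation class, anything else inactive; classes could only be given to wells that looked healthy when left untreated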
# Shown is an unselected part of about 1,800 reagents tested. In the full data, 732 (41%) are marked active. 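Calls are per siRNA reagent; a gene was deemed confirmed only if most of its four siRNAs scored.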 Entries without a mark were called inactive. The numbers tell different reagents against one gene apart.
gene,reagent,viability relative to mock,caspase activity relative to mock,viability hit class,caspase hit class
NUP42,1,0.74 (active),2.64,no change,caspase activation
NUP42,2,0.81,1.7,no change,no change
NUP42,3,0.74,1.94,no change,no change
NUP42,4,1,1.25,no change,no change
KCNMB3,1,0.45 (active),4.17,reduced viability,caspase activation
KCNMB3,2,0.72,2.15,no change,no change
KCNMB3,3,0.84,0.96,no change,no change
KCNMB3,4,0.8,2.19,no change,no change
NAT8B,1,0.28 (active),4,reduced viability,caspase activation
NAT8B,2,0.93,1.04,no change,no change
NAT8B,3,0.94,0.99,no change,no change
NAT8B,4,0.77,1.02,no change,no change
MSANTD1,1,0.82 (active),4.63,no change,caspase activation
MSANTD1,2,0.16 (active),4.05,reduced viability,caspase activation
MSANTD1,3,0.9 (active),2.65,no change,caspase activation
MSANTD1,4,0.78,2.14,no change,no change
PCP2,1,0.88,1.85,no change,no change
PCP2,2,0.7 (active),2.94,no change,caspase activation
PCP2,3,0.45 (active),2.9,reduced viability,caspase activation
PCP2,4,0.75,0.57,no change,no change
NYX,1,1.03,1.16,no change,no change
NYX,2,0.18 (active),4.38,reduced viability,caspase activation
NYX,3,0.67,2.01,no change,no change
NYX,4,0.92,1.02,no change,no change

Part of the list above in another layout:
gene	reagent	viability relative to mock	caspase activity relative to mock	viability hit class	caspase hit class
KCNMB3	4	0.8	2.19	no change	no change
NAT8B	1	0.28 (active)	4	reduced viability	caspase activation
NAT8B	2	0.93	1.04	no change	no change
NAT8B	3	0.94	0.99	no change	no change
